Results reported in the supplement of paper PMC10849652.
The list shows a part of the results.

Sequences of proteins named here, by UniProt entry; tags and fusion partners are left off. A change or cut given only in a name is not applied to a line headed by its entry.
UniProt O75923: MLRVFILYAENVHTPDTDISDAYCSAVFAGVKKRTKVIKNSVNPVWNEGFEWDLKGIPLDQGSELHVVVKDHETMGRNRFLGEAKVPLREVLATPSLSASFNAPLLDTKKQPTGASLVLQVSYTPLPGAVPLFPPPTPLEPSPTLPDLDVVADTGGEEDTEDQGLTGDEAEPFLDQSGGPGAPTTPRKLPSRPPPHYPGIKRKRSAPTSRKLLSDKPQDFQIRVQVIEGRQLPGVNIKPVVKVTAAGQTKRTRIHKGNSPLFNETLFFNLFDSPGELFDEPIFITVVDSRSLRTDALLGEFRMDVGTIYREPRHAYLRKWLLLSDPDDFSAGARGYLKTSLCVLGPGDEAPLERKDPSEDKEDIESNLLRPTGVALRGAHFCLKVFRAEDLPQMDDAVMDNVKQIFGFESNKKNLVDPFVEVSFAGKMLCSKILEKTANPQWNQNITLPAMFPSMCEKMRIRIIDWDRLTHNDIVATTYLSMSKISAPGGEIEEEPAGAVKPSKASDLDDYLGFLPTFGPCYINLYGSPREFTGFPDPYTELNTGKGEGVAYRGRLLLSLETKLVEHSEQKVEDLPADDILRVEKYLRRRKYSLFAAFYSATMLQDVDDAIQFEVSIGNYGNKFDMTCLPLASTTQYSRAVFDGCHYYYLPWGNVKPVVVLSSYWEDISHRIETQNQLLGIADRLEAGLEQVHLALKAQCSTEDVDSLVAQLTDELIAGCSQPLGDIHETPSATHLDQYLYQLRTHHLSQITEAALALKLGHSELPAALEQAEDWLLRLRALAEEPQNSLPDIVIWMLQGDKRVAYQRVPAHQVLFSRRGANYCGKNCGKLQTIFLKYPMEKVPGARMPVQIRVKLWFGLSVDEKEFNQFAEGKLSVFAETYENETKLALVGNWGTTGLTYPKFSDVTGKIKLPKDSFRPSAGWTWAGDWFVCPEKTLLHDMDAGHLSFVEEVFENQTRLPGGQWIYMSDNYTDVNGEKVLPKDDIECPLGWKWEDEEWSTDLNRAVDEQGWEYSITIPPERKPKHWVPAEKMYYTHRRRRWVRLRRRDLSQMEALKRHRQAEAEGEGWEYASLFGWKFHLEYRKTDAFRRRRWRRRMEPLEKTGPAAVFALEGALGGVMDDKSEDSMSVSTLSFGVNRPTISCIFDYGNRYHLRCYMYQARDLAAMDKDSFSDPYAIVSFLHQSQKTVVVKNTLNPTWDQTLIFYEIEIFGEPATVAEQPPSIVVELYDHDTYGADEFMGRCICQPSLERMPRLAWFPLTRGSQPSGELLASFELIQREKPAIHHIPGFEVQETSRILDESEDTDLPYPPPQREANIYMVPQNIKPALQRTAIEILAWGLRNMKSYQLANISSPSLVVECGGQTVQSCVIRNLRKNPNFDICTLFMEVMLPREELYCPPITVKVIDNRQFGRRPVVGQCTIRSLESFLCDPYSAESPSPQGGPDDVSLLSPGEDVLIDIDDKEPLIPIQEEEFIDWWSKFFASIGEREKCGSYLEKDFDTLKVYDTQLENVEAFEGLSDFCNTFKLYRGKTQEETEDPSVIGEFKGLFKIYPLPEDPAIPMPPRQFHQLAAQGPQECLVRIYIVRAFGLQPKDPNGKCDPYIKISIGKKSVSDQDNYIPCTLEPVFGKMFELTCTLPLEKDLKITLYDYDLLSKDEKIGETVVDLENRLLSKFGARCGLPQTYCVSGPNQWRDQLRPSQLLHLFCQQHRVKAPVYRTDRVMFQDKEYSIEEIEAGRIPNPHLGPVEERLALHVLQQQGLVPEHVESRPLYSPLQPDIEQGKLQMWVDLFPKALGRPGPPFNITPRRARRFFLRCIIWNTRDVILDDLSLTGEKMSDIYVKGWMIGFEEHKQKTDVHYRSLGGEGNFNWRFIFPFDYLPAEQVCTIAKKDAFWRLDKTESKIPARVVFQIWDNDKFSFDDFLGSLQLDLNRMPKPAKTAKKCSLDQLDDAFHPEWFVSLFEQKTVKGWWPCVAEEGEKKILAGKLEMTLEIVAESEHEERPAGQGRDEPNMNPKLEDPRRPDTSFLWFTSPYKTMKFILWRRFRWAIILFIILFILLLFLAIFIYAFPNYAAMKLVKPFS
UniProt Q7RTS9: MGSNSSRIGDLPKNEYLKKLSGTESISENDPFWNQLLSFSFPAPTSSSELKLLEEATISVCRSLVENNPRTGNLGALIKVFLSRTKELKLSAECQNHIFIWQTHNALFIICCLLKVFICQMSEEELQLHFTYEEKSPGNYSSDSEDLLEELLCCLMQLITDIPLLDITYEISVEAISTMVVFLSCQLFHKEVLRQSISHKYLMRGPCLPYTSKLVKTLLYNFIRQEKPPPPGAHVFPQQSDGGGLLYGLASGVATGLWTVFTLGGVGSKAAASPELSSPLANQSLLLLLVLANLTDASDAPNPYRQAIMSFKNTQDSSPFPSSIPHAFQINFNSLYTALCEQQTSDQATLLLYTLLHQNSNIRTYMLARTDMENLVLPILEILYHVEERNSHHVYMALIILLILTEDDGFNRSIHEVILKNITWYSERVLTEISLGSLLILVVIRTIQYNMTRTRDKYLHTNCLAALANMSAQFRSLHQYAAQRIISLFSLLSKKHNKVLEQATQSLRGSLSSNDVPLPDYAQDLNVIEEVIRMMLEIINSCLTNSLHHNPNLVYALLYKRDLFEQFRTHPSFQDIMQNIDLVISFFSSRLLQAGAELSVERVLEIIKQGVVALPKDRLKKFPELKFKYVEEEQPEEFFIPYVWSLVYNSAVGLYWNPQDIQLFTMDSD
UniProt Q86UW9: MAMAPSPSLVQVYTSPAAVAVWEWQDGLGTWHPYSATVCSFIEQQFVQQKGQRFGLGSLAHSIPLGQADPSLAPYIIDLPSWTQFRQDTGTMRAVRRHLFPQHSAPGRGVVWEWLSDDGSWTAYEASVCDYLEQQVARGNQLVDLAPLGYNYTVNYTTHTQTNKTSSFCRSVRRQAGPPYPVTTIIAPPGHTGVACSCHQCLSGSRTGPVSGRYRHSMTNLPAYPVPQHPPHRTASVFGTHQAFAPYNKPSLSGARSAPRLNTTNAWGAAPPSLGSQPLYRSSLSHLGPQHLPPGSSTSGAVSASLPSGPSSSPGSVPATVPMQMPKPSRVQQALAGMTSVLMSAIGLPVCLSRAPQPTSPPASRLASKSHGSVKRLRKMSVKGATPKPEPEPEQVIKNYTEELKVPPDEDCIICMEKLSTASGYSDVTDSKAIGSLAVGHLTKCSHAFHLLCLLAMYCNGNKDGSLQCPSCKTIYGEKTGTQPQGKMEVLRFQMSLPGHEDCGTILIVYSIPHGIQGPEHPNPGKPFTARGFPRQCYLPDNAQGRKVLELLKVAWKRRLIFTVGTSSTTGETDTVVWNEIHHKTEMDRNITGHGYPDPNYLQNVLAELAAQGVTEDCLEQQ
UniProt Q6UX65: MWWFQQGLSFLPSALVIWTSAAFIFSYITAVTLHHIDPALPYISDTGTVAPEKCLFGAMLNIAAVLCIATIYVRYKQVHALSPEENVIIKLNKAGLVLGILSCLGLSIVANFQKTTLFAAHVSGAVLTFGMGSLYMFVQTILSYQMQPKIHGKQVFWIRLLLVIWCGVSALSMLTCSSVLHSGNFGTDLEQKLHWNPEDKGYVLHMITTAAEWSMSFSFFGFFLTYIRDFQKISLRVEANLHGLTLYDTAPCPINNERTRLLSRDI
UniProt Q6P2E9: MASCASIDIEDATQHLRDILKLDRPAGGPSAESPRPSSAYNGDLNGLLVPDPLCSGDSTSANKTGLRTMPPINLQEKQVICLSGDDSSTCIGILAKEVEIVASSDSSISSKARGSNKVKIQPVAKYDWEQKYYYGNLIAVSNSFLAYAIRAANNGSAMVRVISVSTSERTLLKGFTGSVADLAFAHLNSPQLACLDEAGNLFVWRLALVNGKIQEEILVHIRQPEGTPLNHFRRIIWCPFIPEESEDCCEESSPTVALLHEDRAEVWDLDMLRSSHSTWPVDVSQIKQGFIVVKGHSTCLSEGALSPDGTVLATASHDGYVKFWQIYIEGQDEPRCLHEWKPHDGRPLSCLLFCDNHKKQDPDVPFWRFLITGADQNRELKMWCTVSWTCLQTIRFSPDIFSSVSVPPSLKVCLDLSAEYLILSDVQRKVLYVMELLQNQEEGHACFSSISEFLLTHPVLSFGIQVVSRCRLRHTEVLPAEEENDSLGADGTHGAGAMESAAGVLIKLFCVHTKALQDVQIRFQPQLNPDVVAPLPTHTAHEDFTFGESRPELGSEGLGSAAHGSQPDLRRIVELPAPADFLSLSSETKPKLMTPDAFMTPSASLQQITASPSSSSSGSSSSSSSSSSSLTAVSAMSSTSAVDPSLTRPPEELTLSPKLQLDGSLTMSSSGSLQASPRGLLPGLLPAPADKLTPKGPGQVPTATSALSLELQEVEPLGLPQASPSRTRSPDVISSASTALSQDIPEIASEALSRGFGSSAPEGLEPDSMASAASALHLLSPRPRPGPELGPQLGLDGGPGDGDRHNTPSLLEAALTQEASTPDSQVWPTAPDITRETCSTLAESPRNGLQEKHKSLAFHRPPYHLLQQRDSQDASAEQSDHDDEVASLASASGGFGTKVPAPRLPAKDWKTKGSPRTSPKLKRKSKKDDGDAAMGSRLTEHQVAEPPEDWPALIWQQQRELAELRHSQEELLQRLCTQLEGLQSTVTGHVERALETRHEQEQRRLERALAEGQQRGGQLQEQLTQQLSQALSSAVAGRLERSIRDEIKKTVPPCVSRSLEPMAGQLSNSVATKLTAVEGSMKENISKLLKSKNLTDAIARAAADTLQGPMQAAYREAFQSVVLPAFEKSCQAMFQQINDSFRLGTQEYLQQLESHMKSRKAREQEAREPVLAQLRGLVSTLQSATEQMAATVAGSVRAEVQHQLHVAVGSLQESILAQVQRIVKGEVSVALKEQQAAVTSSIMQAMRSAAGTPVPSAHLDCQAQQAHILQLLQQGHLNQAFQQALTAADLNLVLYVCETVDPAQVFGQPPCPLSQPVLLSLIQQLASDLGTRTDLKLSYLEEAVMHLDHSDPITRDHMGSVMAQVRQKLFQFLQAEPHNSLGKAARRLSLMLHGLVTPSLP
UniProt Q9NRR4: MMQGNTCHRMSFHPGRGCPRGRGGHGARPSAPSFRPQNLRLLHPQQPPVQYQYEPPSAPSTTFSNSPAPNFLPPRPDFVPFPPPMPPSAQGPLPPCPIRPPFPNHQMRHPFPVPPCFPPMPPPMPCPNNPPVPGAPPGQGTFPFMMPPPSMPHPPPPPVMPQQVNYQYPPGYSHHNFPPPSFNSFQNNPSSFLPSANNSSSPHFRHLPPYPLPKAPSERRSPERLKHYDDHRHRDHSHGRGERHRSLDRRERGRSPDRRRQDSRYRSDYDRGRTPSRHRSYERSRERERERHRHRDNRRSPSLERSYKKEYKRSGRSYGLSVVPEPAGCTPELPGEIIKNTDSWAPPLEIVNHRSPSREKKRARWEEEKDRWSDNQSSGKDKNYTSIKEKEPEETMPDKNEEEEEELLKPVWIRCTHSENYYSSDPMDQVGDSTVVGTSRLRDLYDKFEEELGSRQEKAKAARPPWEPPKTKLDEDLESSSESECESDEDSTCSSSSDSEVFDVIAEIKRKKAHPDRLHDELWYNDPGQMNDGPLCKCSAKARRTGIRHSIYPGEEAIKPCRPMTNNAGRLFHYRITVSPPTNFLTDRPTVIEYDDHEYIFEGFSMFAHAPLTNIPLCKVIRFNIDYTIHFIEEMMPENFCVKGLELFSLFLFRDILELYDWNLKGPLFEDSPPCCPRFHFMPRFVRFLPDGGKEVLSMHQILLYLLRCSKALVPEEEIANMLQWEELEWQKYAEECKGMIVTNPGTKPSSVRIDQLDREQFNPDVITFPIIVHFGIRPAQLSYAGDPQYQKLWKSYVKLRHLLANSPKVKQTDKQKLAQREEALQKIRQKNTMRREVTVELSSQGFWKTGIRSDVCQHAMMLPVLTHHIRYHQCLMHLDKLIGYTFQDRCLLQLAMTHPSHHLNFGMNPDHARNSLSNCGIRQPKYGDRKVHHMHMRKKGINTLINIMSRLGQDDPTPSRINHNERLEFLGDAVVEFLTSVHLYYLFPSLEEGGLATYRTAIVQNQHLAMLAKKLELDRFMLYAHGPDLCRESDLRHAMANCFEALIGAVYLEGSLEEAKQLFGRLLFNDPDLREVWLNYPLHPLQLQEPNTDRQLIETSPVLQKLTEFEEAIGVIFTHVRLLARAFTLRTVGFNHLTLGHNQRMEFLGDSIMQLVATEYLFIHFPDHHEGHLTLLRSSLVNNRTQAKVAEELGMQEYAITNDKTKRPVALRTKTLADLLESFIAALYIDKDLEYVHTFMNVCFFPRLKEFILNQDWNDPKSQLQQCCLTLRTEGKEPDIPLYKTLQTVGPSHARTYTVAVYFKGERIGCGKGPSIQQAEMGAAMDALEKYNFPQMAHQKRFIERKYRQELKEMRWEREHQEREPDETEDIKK

Experiments:
Experiment in all cases: log2 fold change, soluble protein after heating vs DMSO (PISA); higher = thermal stabilisation; K562 lysate, 10 uM; active = over 0.2 and 3.5 SD of the protein, either way, in both replicates (recomputed)
lapatinib = compound: CS(=O)(=O)CCNCc1ccc(-c2ccc3ncnc(Nc4ccc(OCc5cccc(F)c5)c(Cl)c4)c3c2)o1 [lapatinib]
Summary of the method: (§1)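 A 30 min treatment with 10 μM compound was applied to crude K562 extract at 1 mg/mL protein in PBS pH 7.4 with 1 mM MgCl2. Heating for 3 min spanned 48°C-58°C, after which aliquots were pooled, adjusted to 0.5% NP-40 at 4°C and spun at 21,000xg for 90 min. TMTpro 16plex LC-MS/MS of the supernatant, with channel sums equalised, gave values recorded as log-two fold change in thermal stability against solvent controls, from duplicates.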

pictilisib = compound: CS(=O)(=O)N1CCN(Cc2cc3nc(-c4cccc5[nH]ncc45)nc(N4CCOCC4)c3s2)CC1 [pictilisib]
Summary of the method: as §1

crizotinib = compound: C[C@@H](Oc1cc(-c2cnn(C3CCNCC3)c2)cnc1N)c1c(Cl)ccc(F)c1Cl [crizotinib]
Summary of the method: as §1

[1] = compound: C[C@H](C1=CC=C(C=C1)C(=O)NC2=C3C=CNC3=NC=C2)N
Summary of the method: as §1

duvelisib = compound: C[C@H](Nc1ncnc2nc[nH]c12)c1cc2cccc(Cl)c2c(=O)n1-c1ccccc1 [duvelisib]
Summary of the method: as §1

gandotinib = compound: Cc1cc(Nc2cc(CN3CCOCC3)c3nc(C)c(Cc4ccc(Cl)cc4F)n3n2)n[nH]1 [gandotinib]
Summary of the method: as §1

tozasertib = compound: Cc1cc(Nc2cc(N3CCN(C)CC3)nc(Sc3ccc(NC(=O)C4CC4)cc3)n2)n[nH]1 [tozasertib]
Summary of the method: as §1

doramapimod = compound: Cc1ccc(-n2nc(C(C)(C)C)cc2NC(=O)Nc2ccc(OCCN3CCOCC3)c3ccccc23)cc1 [doramapimod]
Summary of the method: as §1

bafetinib = compound: Cc1ccc(NC(=O)c2ccc(CN3CC[C@H](N(C)C)C3)c(C(F)(F)F)c2)cc1Nc1nccc(-c2cncnc2)n1 [bafetinib]
Summary of the method: as §1

[2] = compound: Cc1cccc(CC(=O)N2CCc3c2ccc(-c2cn(C)c4ncnc(N)c24)c3F)n1
Summary of the method: as §1

dasatinib = compound: Cc1nc(Nc2ncc(C(=O)Nc3c(C)cccc3Cl)s2)cc(N2CCN(CCO)CC2)n1 [dasatinib]
Summary of the method: as §1

[3] = compound: Cn1cc(-c2ccc3c(c2)CCN3C(=O)Cc2cccc(C(F)(F)F)c2)c2c(N)ncnc21
Summary of the method: as §1

quisinostat = compound: Cn1cc(CNCC2CCN(c3ncc(C(=O)NO)cn3)CC2)c2ccccc21 [quisinostat]
Summary of the method: as §1

[4] = compound: NC(=O)Nc1cc(-c2cccc(F)c2)sc1C(=O)N[C@H]1CCCNC1
Summary of the method: as §1

[5] = compound: NC(=O)c1cnc(N[C@@H]2CCCC[C@@H]2N)nc1Nc1cccc(-n2nccn2)c1
Summary of the method: as §1

[6] = compound: NC1(c2ccc(-c3nc4ccn5c(=O)[nH]nc5c4cc3-c3ccccc3)cc2)CCC1
Summary of the method: as §1

nilotinib = compound: Cc1cn(-c2cc(NC(=O)c3ccc(C)c(Nc4nccc(-c5cccnc5)n4)c3)cc(C(F)(F)F)c2)cn1 [nilotinib]
Summary of the method: as §1

[7] = compound: Cc1nc(Nc2n[nH]c3c2CN(C(=O)N[C@H](CN(C)C)c2ccccc2)C3(C)C)c2sccc2n1
Summary of the method: as §1

[8] = compound: Cc1ncc(-c2ccnc(Nc3ccc(S(C)(=O)=O)cc3)n2)n1C(C)C
Summary of the method: as §1

tipifarnib = compound: Cn1cncc1[C@@](N)(c1ccc(Cl)cc1)c1ccc2c(c1)c(-c1cccc(Cl)c1)cc(=O)n2C [tipifarnib]
Summary of the method: as §1

Measured: log2 fold change

DYSF isoform 13 (UniProt O75923)
inactive: lapatinib -0.042 | pictilisib -0.089 | crizotinib -0.081 | [1] -0.102 | duvelisib -0.06 | gandotinib 0.029 | tozasertib -0.113 | doramapimod 0.094 | bafetinib -0.295 | [2] 0.123 | dasatinib 0.067 | [3] -0.05 | quisinostat -0.057 | [4] -0.015 | [5] 0.001 | [6] -0.1

DYM (UniProt Q7RTS9)
inactive: lapatinib -0.054 | pictilisib 0.01 | crizotinib -0.135 | [1] -0.03 | duvelisib 0.031 | gandotinib -0.133 | tozasertib -0.064 | doramapimod -0.028 | bafetinib -0.043 | [2] 0.052 | nilotinib 0.016 | [7] 0.049 | dasatinib -0.059 | [8] -0.088 | [3] -0.017 | quisinostat 0.057 | tipifarnib -0.07 | [4] 0.069 | [5] 0.043 | [6] 0.06

DTX2 (UniProt Q86UW9)
inactive: lapatinib 0.05 | pictilisib -0.02 | crizotinib -0.098 | [1] 0.012 | duvelisib -0.166 | gandotinib -0.059 | doramapimod 0.186 | bafetinib 0.009 | [2] -0.039 | nilotinib -0.053 | [7] -0.002 | dasatinib 0.007 | [8] -0.057 | [3] 0.042 | quisinostat -0.115 | tipifarnib 0.051 | [4] -0.055 | [5] -0.023 | [6] 0.041

EHHADH (UniProt Q08426)
inactive: lapatinib -0.037 | pictilisib 0.143 | crizotinib -0.001 | [1] 0.016 | duvelisib 0.051 | gandotinib -0.117 | tozasertib 0.045 | doramapimod 0.048 | bafetinib 0.06 | [2] 0 | nilotinib -0.048 | [7] -0.091 | dasatinib -0.011 | [8] 0.045 | [3] -0.047 | quisinostat -0.072 | tipifarnib 0.052 | [4] -0.003 | [5] 0.025 | [6] 0.097

DRAM2 (UniProt Q6UX65)
inactive: lapatinib 0.077 | pictilisib -0.088 | crizotinib -0.043 | [1] -0.085 | gandotinib 0.16 | doramapimod 0.044 | bafetinib 0.032 | [2] 0.166 | nilotinib 0.044 | [7] -0.007 | [8] -0.034 | quisinostat -0.036 | tipifarnib 0.137 | [4] -0.029 | [5] -0.042

DPH2 (UniProt Q9BQC3)
inactive: lapatinib 0.016 | pictilisib 0.004 | crizotinib -0.038 | [1] 0.034 | duvelisib -0.017 | gandotinib 0.04 | tozasertib -0.003 | doramapimod 0.061 | bafetinib -0.01 | [2] -0.02 | nilotinib 0.021 | [7] 0.04 | dasatinib -0.001 | [8] -0.032 | [3] 0.048 | quisinostat -0.01 | tipifarnib 0.01 | [4] -0.004 | [5] 0.025 | [6] 0.04

DYNC1I2 isoform 2 (UniProt Q13409)
inactive: lapatinib 0.029 | pictilisib 0.078 | crizotinib -0.031 | [1] 0.096 | duvelisib 0.015 | gandotinib -0.132 | tozasertib 0.001 | doramapimod -0.011 | bafetinib -0.041 | [2] -0.012 | dasatinib -0.058 | [3] 0.046 | quisinostat -0.009 | [4] 0.024 | [5] -0.008 | [6] -0.025

EHD1 (UniProt Q9H4M9)
inactive: lapatinib -0.026 | pictilisib -0.025 | crizotinib -0.056 | [1] 0.052 | duvelisib -0.015 | gandotinib -0.171 | tozasertib -0.009 | doramapimod 0.023 | bafetinib -0.03 | [2] -0.04 | nilotinib 0.022 | [7] -0.017 | dasatinib -0.07 | [8] -0.018 | [3] -0.004 | quisinostat -0.009 | tipifarnib 0.001 | [4] 0.03 | [5] 0.011 | [6] -0.003

EHMT1 (UniProt Q9H9B1)
inactive: lapatinib -0.014 | pictilisib -0.005 | crizotinib -0.001 | [1] -0.062 | duvelisib -0.083 | gandotinib 0.006 | tozasertib 0.031 | doramapimod 0.005 | bafetinib -0.037 | [2] 0.063 | nilotinib -0.066 | [7] 0.036 | dasatinib -0.009 | [8] 0.018 | [3] 0.05 | quisinostat -0.058 | tipifarnib 0.024 | [4] 0.012 | [5] 0.048 | [6] -0.054

EDC4 (UniProt Q6P2E9)
inactive: lapatinib -0.025 | pictilisib -0.029 | crizotinib -0.01 | [1] -0.044 | duvelisib 0.016 | gandotinib -0.027 | tozasertib -0.016 | doramapimod -0.014 | bafetinib -0.043 | [2] 0.049 | nilotinib 0 | [7] 0.007 | dasatinib -0.058 | [8] 0.007 | [3] -0.002 | quisinostat -0.071 | tipifarnib -0.001 | [4] 0.01 | [5] 0.027 | [6] 0.011

DUS2 (UniProt Q9NX74)
inactive: lapatinib -0.033 | pictilisib 0.04 | crizotinib 0.041 | [1] -0.032 | duvelisib 0.018 | gandotinib -0.051 | tozasertib 0.011 | doramapimod -0.01 | bafetinib -0.017 | [2] -0.009 | nilotinib 0.021 | [7] -0.035 | dasatinib 0.037 | [8] 0.011 | [3] -0.024 | quisinostat 0.088 | tipifarnib -0.019 | [4] 0 | [5] 0.014 | [6] -0.045

DSCC1 (UniProt Q9BVC3)
inactive: lapatinib 0.022 | pictilisib -0.045 | crizotinib -0.07 | [1] -0.021 | duvelisib -0.028 | gandotinib 0.006 | tozasertib -0.049 | doramapimod 0.056 | bafetinib -0.02 | [2] 0.011 | nilotinib 0.072 | [7] 0.053 | dasatinib 0.094 | [8] -0.08 | [3] -0.021 | quisinostat -0.113 | tipifarnib -0.019 | [4] 0.025 | [5] 0.069 | [6] -0.017

EEF1A1, A0A087WVQ9
inactive: lapatinib 0.028 | pictilisib -0.038 | crizotinib -0.02 | [1] 0.07 | duvelisib -0.021 | gandotinib 0.017 | tozasertib -0.08 | doramapimod -0.069 | bafetinib 0.068 | [2] -0.129 | nilotinib 0.124 | [7] 0.012 | dasatinib 0.006 | [8] 0.044 | [3] 0.002 | quisinostat -0.025 | tipifarnib -0.001 | [4] 0.024 | [5] 0.013 | [6] 0.016

EEF2 (UniProt P13639)
inactive: lapatinib 0.002 | pictilisib 0.005 | crizotinib 0.029 | [1] 0.007 | duvelisib -0.01 | gandotinib 0.011 | tozasertib -0.004 | doramapimod -0.009 | bafetinib 0.066 | [2] -0.014 | nilotinib 0.004 | [7] -0.003 | dasatinib 0.002 | [8] 0.012 | [3] -0.011 | quisinostat 0.046 | tipifarnib 0.018 | [4] -0.01 | [5] -0.01 | [6] 0.006

DROSHA (UniProt Q9NRR4)
inactive: lapatinib -0.007 | pictilisib 0.073 | crizotinib 0.061 | [1] 0.019 | duvelisib 0.002 | gandotinib -0.156 | tozasertib 0.012 | doramapimod 0.023 | bafetinib -0.063 | [2] -0.119 | nilotinib -0.083 | [7] -0.03 | dasatinib -0.021 | [8] 0.009 | [3] 0.012 | quisinostat -0.043 | tipifarnib 0.026 | [4] 0.01 | [5] 0.035 | [6] 0.065

Reprinted at random: two records from the list.
DSCC1 (UniProt Q9BVC3)
inactive: lapatinib 0.022 | pictilisib -0.045 | crizotinib -0.07 | [1] -0.021 | duvelisib -0.028 | gandotinib 0.006 | tozasertib -0.049 | doramapimod 0.056 | bafetinib -0.02 | [2] 0.011 | nilotinib 0.072 | [7] 0.053 | dasatinib 0.094 | [8] -0.08 | [3] -0.021 | quisinostat -0.113 | tipifarnib -0.019 | [4] 0.025 | [5] 0.069 | [6] -0.017

DUS2 (UniProt Q9NX74)
inactive: lapatinib -0.033 | pictilisib 0.04 | crizotinib 0.041 | [1] -0.032 | duvelisib 0.018 | gandotinib -0.051 | tozasertib 0.011 | doramapimod -0.01 | bafetinib -0.017 | [2] -0.009 | nilotinib 0.021 | [7] -0.035 | dasatinib 0.037 | [8] 0.011 | [3] -0.024 | quisinostat 0.088 | tipifarnib -0.019 | [4] 0 | [5] 0.014 | [6] -0.045
